Source: PubChem BioAssay AID504804 (Drosophila RNAi Screening Center, 2011)
The deposit covers about 19,000 reagents; shown is an unselected part of those that have a named target and a result. Of all reagents, 47 (0.25%) were called active. 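Signals are raw, not normalised; exact z-scores behind calls not deposited; actives needed confirmation, so some wells reaching 2 SD are inactive.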 Reagent sequences are not shown.

- Test: 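Fly genes whose loss lessens doxorubicin-driven cell death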 (primary screen)
- Cell system: Drosophila Kc cells
- Knock-down reagent: long dsRNA against Drosophila genes, 0.5 µg dsRNA per well
- Timing: 96 h (48 h knock-down, then 48 h drug)
- Treatment: doxorubicin 5 µg/ml for 48 h, added 48 h after dsRNA
- Measurement: 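Viability measured as cellular ATP by luminescence after 48 h knock-down then 48 h doxorubicin at 5 µg/ml; unnormalised plate counts for each replicate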
- Scale: raw ATP luminescence: higher = more viable cells, protection from doxorubicin
- Active means: 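z-score of 2 or more over plate mean in both duplicates, retained only when retests and separate dsRNAs confirm the protection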

meso18E [DRSC20351]: raw ATP luminescence, replicate 1 = 1.93e5; raw ATP luminescence, replicate 2 = 2.73e5; call = inactive
CG33914 [DRSC05033]: raw ATP luminescence, replicate 1 = 92467; raw ATP luminescence, replicate 2 = 93837; call = inactive
P5CS [DRSC11831]: raw ATP luminescence, replicate 1 = 24880; raw ATP luminescence, replicate 2 = 18737; call = inactive
P5CS [DRSC11832]: raw ATP luminescence, replicate 1 = 66007; raw ATP luminescence, replicate 2 = 55667; call = inactive
CCKLR-17D1 [DRSC20010]: raw ATP luminescence, replicate 1 = 2.89e5; raw ATP luminescence, replicate 2 = 2.66e5; call = inactive
CCKLR-17D1 [DRSC20011]: raw ATP luminescence, replicate 1 = 2.34e5; raw ATP luminescence, replicate 2 = 2.26e5; call = inactive
CCKLR-17D1 [DRSC20012]: raw ATP luminescence, replicate 1 = 2.01e5; raw ATP luminescence, replicate 2 = 2.51e5; call = inactive
egg [DRSC04119]: raw ATP luminescence, replicate 1 = 52417; raw ATP luminescence, replicate 2 = 37720; call = inactive
CG3253 [DRSC04350]: raw ATP luminescence, replicate 1 = 67723; raw ATP luminescence, replicate 2 = 54733; call = inactive
Ubc84D [DRSC12610]: raw ATP luminescence, replicate 1 = 65210; raw ATP luminescence, replicate 2 = 69783; call = inactive
CG33278 [DRSC10336]: raw ATP luminescence, replicate 1 = 77697; raw ATP luminescence, replicate 2 = 82747; call = inactive
pasi1 [DRSC16299]: raw ATP luminescence, replicate 1 = 29230; raw ATP luminescence, replicate 2 = 25060; call = inactive

Look-ups from the list.
CG33914 [DRSC05033], call = inactive
For “raw ATP luminescence, replicate 1”, CG3253 [DRSC04350] shows 67723
